Reference: PubChem BioAssay AID1259405 (NCATS, 2018)
Screen: 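Mouse-designed siRNAs used to find CHO productivity engineering targets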 (primary screen). System: Chinese hamster CHO-K1 ovary cells with stable secreted eGFP expression. Reagents: single siRNA against mouse genes, 0.8 pmol siRNA per well (2 µl of 400 nM stock). Time to read-out: 3 days. Detection: 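Per-well intracellular GFP measured by laser scanning cytometry, plus viability from ATP luminescence, each relative to plate median of non-targeting control wells, in %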. Direction: GFP, % of control: higher = more GFP per well, higher productivity; viability (ATP), % of control: higher = more viable cells (more ATP). Rule for the call: 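Called active when intracellular GFP, relative to negative control, is at or above 120%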.
Shown is an unselected part of about 50,000 deposited reagents. Over the whole deposit, about 4,000 (8%) were called active. 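Mouse siRNA library applied to hamster cells; one well for each siRNA.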 Reagents against one gene are numbered here. Reagent sequences are not shown.

gene | siRNA no. | GFP, % of control | viability (ATP), % of control | outcome
Heyl (GeneID 56198) | 1 | 62.8 | 59.8 | inactive
Heyl (GeneID 56198) | 2 | 70.5 | 63.9 | inactive
Heyl (GeneID 56198) | 3 | 117 | 107 | inactive
Etfdh (GeneID 66841) | 1 | 64.5 | 85.7 | inactive
Etfdh (GeneID 66841) | 2 | 68.6 | 73.9 | inactive
Etfdh (GeneID 66841) | 3 | 85.7 | 103 | inactive
Fancd2 (GeneID 211651) | 1 | 92.9 | 81.3 | inactive
Fancd2 (GeneID 211651) | 2 | 104 | 80.3 | inactive
Fancd2 (GeneID 211651) | 3 | 93.7 | 84 | inactive
Vmn1r63 (GeneID 81017) | 1 | 56.3 | 43.8 | inactive
Vmn1r63 (GeneID 81017) | 2 | 119 | 82.1 | inactive
Vmn1r63 (GeneID 81017) | 3 | 66.1 | 81.8 | inactive
Tacr1 (GeneID 21336) | 1 | 70.5 | 70.1 | inactive
Tacr1 (GeneID 21336) | 2 | 81.4 | 88.8 | inactive
Tacr1 (GeneID 21336) | 3 | 78.6 | 86.1 | inactive
Gsta1 (GeneID 14857) | 1 | 78.8 | 112 | inactive
Gsta1 (GeneID 14857) | 2 | 82.3 | 107 | inactive
Gsta1 (GeneID 14857) | 3 | 76.6 | 63.5 | inactive
Wbp4 (GeneID 22380) | 1 | 75.3 | 65.3 | inactive
Wbp4 (GeneID 22380) | 2 | 62.8 | 62.5 | inactive
Wbp4 (GeneID 22380) | 3 | 84.2 | 85.5 | inactive
Atp5f1e (GeneID 67126) | 1 | 98.8 | 83.7 | inactive
Atp5f1e (GeneID 67126) | 2 | 103 | 88.9 | inactive
Atp5f1e (GeneID 67126) | 3 | 88.9 | 86.3 | inactive
Rmdn2 (GeneID 381110) | 1 | 34.2 | 40.2 | inactive
Rmdn2 (GeneID 381110) | 2 | 54.2 | 86.4 | inactive
Rmdn2 (GeneID 381110) | 3 | 92.3 | 91.6 | inactive
Rnpc3 (GeneID 67225) | 1 | 73.9 | 65.7 | inactive
Rnpc3 (GeneID 67225) | 2 | 88.9 | 93.5 | inactive
Rnpc3 (GeneID 67225) | 3 | 130 | 113 | active
Ppp1r15b (GeneID 108954) | 1 | 87.6 | 143 | inactive
Ppp1r15b (GeneID 108954) | 2 | 94.8 | 68.7 | inactive
Lamc2 (GeneID 16782) | 1 | 80.8 | 142 | inactive
Lamc2 (GeneID 16782) | 2 | 83.3 | 69.6 | inactive
Mmaa (GeneID 109136) | 1 | 74.7 | 100 | inactive
Mmaa (GeneID 109136) | 2 | 78.7 | 59.7 | inactive
Defb15 (GeneID 246082) | 1 | 59.6 | 86.9 | inactive
Defb15 (GeneID 246082) | 2 | 95.5 | 102 | inactive
Defb15 (GeneID 246082) | 3 | 86.7 | 81.7 | inactive
Or1r1 (GeneID 258705) | 1 | 87.2 | 62 | inactive
Or1r1 (GeneID 258705) | 2 | 81.3 | 65.9 | inactive
Or1r1 (GeneID 258705) | 3 | 38.5 | 62.2 | inactive
Mrtfb (GeneID 239719) | 1 | 60 | 76.8 | inactive
Mrtfb (GeneID 239719) | 2 | 93.6 | 97.2 | inactive
Mrtfb (GeneID 239719) | 3 | 98.8 | 87.5 | inactive
Mrtfb (GeneID 239719) | 4 | 86 | 84.7 | inactive
Mrtfb (GeneID 239719) | 5 | 61.7 | 64.9 | inactive
Mrtfb (GeneID 239719) | 6 | 72.3 | 96.2 | inactive
Arhgef10l (GeneID 72754) | 1 | 82.9 | 82.8 | inactive
Arhgef10l (GeneID 72754) | 2 | 56.2 | 39.7 | inactive
Arhgef10l (GeneID 72754) | 3 | 82 | 75.5 | inactive
Or5ak24 (GeneID 258425) | 1 | 31.2 | 15.8 | inactive
Or5ak24 (GeneID 258425) | 2 | 66.9 | 74.1 | inactive
Or5ak24 (GeneID 258425) | 3 | 82.9 | 105 | inactive
Cyb5b (GeneID 66427) | 1 | 113 | 95 | inactive
Cyb5b (GeneID 66427) | 2 | 76.7 | 58.7 | inactive
Cyb5b (GeneID 66427) | 3 | 84.1 | 52.4 | inactive
Fbn2 (GeneID 14119) | 1 | 93.3 | 120 | inactive
Fbn2 (GeneID 14119) | 2 | 29.9 | 62.1 | inactive
Ccdc97 (GeneID 52132) | 1 | 55.3 | 67.9 | inactive
Ccdc97 (GeneID 52132) | 2 | 69.5 | 59.6 | inactive
Ccdc97 (GeneID 52132) | 3 | 9.04 | 18.2 | inactive
Sdhaf4 (GeneID 68002) | 1 | 113 | 117 | inactive
Sdhaf4 (GeneID 68002) | 2 | 79.3 | 69.1 | inactive
Sdhaf4 (GeneID 68002) | 3 | 122 | 45.2 | active
Vps37a (GeneID 52348) | 1 | 66.9 | 67.7 | inactive
Vps37a (GeneID 52348) | 2 | 53.1 | 56.1 | inactive
Vps37a (GeneID 52348) | 3 | 79.3 | 49.3 | inactive
Cdkal1 (GeneID 68916) | 1 | 82 | 95.9 | inactive
Cdkal1 (GeneID 68916) | 2 | 71.6 | 81.1 | inactive
Cdkal1 (GeneID 68916) | 3 | 69.1 | 88.5 | inactive
Vmn1r5 (GeneID 171192) | 1 | 148 | 60.4 | active
Vmn1r5 (GeneID 171192) | 2 | 123 | 82.6 | active
Vmn1r5 (GeneID 171192) | 3 | 75.1 | 105 | inactive
S1pr4 (GeneID 13611) | 1 | 68.4 | 78.1 | inactive
S1pr4 (GeneID 13611) | 2 | 54 | 69.1 | inactive
S1pr4 (GeneID 13611) | 3 | 56 | 57.6 | inactive
Xlr5c (GeneID 27084) | 1 | 86.8 | 50.9 | inactive
Xlr5c (GeneID 27084) | 2 | 56.9 | 61.4 | inactive
Xlr5c (GeneID 27084) | 3 | 165 | 109 | active
Fbxl12os (GeneID 66662) | 1 | 56.8 | 43.4 | inactive
Fbxl12os (GeneID 66662) | 2 | 107 | 82.3 | inactive
Fbxl12os (GeneID 66662) | 3 | 105 | 94.3 | inactive
Prr11 (GeneID 270906) | 1 | 48.5 | 50.1 | inactive
Prr11 (GeneID 270906) | 2 | 55.7 | 78.7 | inactive
Prr11 (GeneID 270906) | 3 | 65.6 | 81.4 | inactive
